Results: article PMC3102714, “OsSpo11-4, a Rice Homologue of the Archaeal TopVIA Protein, Mediates Double-Strand DNA Cleavage and Interacts with OsTopVIB” (PLoS ONE, 2011)
Results are given in words; binding and its absence hold for the method and conditions named. For some assays here: Binding can be weak; no strength is given. Tags and fused reporters may be left off the sequences shown.

Columns and labels:
[1] = biological target: T1, OsTopVIB (yeast two-hybrid fusion) (Oryza sativa L. ssp. japonica) (UniProt Q6H442); test: two-hybrid; … GAL4 Two-hybrid System 3; AD (pGADT7) and BD (pGBKT7) fusions co-transformed into yeast AH109; growth on QDO medium, then colony-lift filter assay with X-gal staining for 7 h
T1 sequence: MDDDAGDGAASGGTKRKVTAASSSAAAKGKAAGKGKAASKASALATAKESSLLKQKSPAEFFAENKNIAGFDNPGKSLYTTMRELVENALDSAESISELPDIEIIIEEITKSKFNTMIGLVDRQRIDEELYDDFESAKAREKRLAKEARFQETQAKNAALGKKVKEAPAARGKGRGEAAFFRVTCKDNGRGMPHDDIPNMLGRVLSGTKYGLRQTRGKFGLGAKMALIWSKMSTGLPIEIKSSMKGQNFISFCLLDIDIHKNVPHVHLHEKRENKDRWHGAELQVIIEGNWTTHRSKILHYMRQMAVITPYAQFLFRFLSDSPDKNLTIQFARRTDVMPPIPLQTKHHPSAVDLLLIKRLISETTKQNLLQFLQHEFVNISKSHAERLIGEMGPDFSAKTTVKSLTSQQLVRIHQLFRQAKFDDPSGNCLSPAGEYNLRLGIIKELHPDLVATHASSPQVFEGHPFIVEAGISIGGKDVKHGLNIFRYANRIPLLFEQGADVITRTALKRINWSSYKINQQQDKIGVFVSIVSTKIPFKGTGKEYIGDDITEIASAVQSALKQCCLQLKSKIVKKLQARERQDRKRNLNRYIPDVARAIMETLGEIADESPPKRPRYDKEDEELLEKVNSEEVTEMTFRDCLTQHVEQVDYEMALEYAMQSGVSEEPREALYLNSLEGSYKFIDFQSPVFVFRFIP

[2] = biological target: T2, OsSpo11-1 (yeast two-hybrid fusion) (Oryza sativa L. ssp. japonica) (UniProt Q7Y021); test: as above
T2 sequence: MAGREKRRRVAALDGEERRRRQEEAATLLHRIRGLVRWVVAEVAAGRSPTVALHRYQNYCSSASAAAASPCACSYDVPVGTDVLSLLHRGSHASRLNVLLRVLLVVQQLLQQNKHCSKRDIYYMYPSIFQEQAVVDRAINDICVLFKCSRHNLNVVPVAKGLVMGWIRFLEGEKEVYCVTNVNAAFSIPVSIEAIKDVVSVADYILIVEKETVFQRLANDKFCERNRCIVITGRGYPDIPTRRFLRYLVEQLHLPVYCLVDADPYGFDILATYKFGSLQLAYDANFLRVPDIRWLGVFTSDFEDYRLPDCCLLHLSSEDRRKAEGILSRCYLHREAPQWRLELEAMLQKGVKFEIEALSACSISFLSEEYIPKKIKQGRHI

binding [1]	binding [2]	Substance
no binding		OsSpo11-5 (yeast two-hybrid fusion, full-length protein) (from UniProt D1MIY4)
	binds weakly	OsSpo11-5N, N-terminal extension of 412 amino acids of OsSpo11-5 (yeast two-hybrid fusion) (Oryza sativa L. ssp. japonica) (domain or fragment)
